From publication PMC9092267
No constants are given. Whether binding was seen depends on the method and setting. Binding seen in cells or lysates may run through a third protein. Some binding calls cover weakened binding; strength is not graded here.

Chains of the proteins cited; added tags and fusions are not shown. Lines headed by an entry give the natural chain unless they say otherwise; changes in a name come on top. A line that says so, or that is headed by a name, gives the form on record, which may keep a tag or linker.
UniProt P67870: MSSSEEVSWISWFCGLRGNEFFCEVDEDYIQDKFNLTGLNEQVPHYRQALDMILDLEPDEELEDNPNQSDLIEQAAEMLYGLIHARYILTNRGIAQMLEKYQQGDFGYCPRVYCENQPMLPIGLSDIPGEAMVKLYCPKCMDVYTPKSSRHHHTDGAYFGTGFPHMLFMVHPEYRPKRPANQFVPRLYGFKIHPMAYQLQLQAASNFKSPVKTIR
GST-tagged CK2β NP_001311.3; p.Asp32His (P67870, form named): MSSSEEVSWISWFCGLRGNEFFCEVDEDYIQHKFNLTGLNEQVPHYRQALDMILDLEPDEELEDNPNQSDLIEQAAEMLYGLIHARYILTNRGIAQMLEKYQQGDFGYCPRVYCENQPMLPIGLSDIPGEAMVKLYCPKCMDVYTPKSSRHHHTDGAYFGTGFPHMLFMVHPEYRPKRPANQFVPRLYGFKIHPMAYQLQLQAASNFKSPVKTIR
UniProt P35222: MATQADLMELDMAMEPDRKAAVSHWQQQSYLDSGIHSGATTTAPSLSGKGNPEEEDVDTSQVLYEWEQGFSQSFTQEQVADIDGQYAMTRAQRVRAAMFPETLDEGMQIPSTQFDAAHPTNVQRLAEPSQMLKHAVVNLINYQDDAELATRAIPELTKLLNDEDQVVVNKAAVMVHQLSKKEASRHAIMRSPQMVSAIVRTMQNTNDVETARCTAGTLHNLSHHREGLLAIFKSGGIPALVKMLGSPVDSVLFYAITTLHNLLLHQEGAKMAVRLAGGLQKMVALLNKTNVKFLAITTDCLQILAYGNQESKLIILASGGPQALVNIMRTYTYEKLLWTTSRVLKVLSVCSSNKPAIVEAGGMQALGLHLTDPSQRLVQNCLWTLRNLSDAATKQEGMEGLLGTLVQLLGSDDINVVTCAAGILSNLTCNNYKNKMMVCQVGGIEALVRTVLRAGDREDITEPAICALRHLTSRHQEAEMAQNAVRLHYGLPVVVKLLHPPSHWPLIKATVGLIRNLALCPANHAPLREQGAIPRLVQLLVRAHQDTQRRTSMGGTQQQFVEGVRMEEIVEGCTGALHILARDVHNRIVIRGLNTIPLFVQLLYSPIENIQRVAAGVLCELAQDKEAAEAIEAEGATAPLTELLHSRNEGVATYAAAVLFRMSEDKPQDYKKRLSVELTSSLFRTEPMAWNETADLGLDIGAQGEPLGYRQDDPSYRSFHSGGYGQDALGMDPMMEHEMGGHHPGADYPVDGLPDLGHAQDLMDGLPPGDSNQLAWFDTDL

Assays:
[1] = biological target: GST-tagged CK2β NP_001311.3; p.Asp32His (Homo sapiens) (UniProt P67870); assay: pull-down; Glutathione Sepharose 4B beads carrying GST-tagged CK2β incubated overnight with precleared lysates of HeLa cells expressing GFP-tagged β-catenin; immunoblot; only the target purified
[2] = biological target: GST-tagged CK2β, wild type (Homo sapiens) (UniProt P67870); assay: as above
[3] = biological target: GST-tagged CK2β NP_001311.3; p.Asp32His (Homo sapiens) (UniProt P67870); assay: pull-down; Glutathione Sepharose 4B beads carrying GST-tagged CK2β incubated overnight with precleared HeLa cell lysates; washed five times with PBS; immunoblot of endogenous proteins; only the target purified
[4] = biological target: GST-tagged CK2β, wild type (Homo sapiens) (UniProt P67870); assay: as above

Substance	binding [1]	binding [2]	binding [3]	binding [4]
GFP-tagged β-catenin (from UniProt P35222 1-781)	binds	binds	–	–
β-catenin, endogenous (from UniProt P35222 1-781)	–	–	binds	binds
